Results are given in words; binding and its absence hold for the method and conditions named. In cells and extracts the contact can be indirect. Some entries that bind do so weakly or less than the wild type. Where a sequence is shown, tags or fusion partners need not be part of it.
How the values were obtained:
Flag-HOIP (human) = Flag-HOIP (human) (UniProt Q96EP0); assay: co-IP; HEK 293T cells co-transfected with Myc-tagged candidate and Flag-HOIP or Flag-OTULIN; lysis in 50 mM Tris-HCl pH 7.4, 150 mM NaCl, 5 mM EDTA, 1% Triton X-100; protein A/G agarose, 4 C overnight; immunoblot
Flag-OTULIN (human) = Flag-OTULIN (human) (UniProt Q96BN8); assay: as above

binding (Flag-HOIP (human)): binds | binding (Flag-OTULIN (human)): binds
B1: Myc-LAG3 wild type (lymphocyte activation gene-3, CD223) (receptor, UniProt P18627 23-525)
chain: LQPGAEVPVVWAQEGAPAQLPCSPTIPLQDLSLLRRAGVTWQHQPDSGPPAAAPGHPLAPGPHPAAPSSWGPRPRRYTVLSVGPGGLRSGRLPLQPRVQLDERGRQRGDFSLWLRPARRADAGEYRAAVHLRDRALSCRLRLRLGQASMTASPPGSLRASDWVILNCSFSRPDRPASVHWFRNRGQGRVPVRESPHHHLAESFLFLPQVSPMDSGPWGCILTYRDGFNVSIMYNLTVLGLEPPTPLTVYAGAGSRVGLPCRLPAGVGTRSFLTAKWTPPGGGPDLLVTGDNGDFTLRLEDVSQAQAGTYTCHIHLQEQQLNATVTLAIITVTPKSFGSPGSLGKLLCEVTPVSGQERFVWSSLDTPSQRSFSGPWLEAQEAQLLSQPWQCQLYQGERLLGAAVYFTELSSPGAQRSGRAPGALPAGHLLLFLILGVLSLLLLVTGAFGFHLWRRQWRPRRFSALEQGIHPPQAQSKIEELEQEPEPEPEPEPEPEPEPEPEQL
